Results on 26 targets are retold here after the supplement of paper PMC6411743.

Protein sequences, listed by entry. Tags and fused reporters are not part of them. Lines headed by an entry give the natural chain unless they say otherwise; changes in a name come on top.
UniProt Q53H82: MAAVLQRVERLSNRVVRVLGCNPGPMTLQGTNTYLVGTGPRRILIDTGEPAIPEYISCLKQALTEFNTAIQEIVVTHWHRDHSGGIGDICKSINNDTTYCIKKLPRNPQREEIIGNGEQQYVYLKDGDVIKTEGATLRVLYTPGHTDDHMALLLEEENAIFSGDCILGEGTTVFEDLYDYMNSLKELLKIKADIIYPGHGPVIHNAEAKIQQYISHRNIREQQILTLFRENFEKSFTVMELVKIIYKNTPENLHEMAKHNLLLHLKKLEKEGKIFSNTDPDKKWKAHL
UniProt Q15653: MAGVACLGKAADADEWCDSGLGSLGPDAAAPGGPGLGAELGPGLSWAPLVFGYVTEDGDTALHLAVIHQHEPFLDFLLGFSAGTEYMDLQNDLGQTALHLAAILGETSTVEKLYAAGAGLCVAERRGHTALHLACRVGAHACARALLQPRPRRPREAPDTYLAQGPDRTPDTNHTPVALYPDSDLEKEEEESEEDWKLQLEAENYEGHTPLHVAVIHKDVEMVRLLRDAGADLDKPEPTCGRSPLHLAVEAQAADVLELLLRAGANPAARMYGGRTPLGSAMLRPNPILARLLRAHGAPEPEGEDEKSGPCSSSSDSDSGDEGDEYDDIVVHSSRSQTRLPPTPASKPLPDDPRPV
UniProt Q16594, whole entry: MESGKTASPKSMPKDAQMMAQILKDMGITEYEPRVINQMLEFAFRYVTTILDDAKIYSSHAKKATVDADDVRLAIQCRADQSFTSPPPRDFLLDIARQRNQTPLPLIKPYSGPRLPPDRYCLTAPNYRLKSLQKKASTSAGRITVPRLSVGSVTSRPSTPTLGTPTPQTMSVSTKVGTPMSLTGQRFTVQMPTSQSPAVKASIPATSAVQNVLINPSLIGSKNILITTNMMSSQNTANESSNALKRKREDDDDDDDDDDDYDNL
UniProt Q5JSZ5: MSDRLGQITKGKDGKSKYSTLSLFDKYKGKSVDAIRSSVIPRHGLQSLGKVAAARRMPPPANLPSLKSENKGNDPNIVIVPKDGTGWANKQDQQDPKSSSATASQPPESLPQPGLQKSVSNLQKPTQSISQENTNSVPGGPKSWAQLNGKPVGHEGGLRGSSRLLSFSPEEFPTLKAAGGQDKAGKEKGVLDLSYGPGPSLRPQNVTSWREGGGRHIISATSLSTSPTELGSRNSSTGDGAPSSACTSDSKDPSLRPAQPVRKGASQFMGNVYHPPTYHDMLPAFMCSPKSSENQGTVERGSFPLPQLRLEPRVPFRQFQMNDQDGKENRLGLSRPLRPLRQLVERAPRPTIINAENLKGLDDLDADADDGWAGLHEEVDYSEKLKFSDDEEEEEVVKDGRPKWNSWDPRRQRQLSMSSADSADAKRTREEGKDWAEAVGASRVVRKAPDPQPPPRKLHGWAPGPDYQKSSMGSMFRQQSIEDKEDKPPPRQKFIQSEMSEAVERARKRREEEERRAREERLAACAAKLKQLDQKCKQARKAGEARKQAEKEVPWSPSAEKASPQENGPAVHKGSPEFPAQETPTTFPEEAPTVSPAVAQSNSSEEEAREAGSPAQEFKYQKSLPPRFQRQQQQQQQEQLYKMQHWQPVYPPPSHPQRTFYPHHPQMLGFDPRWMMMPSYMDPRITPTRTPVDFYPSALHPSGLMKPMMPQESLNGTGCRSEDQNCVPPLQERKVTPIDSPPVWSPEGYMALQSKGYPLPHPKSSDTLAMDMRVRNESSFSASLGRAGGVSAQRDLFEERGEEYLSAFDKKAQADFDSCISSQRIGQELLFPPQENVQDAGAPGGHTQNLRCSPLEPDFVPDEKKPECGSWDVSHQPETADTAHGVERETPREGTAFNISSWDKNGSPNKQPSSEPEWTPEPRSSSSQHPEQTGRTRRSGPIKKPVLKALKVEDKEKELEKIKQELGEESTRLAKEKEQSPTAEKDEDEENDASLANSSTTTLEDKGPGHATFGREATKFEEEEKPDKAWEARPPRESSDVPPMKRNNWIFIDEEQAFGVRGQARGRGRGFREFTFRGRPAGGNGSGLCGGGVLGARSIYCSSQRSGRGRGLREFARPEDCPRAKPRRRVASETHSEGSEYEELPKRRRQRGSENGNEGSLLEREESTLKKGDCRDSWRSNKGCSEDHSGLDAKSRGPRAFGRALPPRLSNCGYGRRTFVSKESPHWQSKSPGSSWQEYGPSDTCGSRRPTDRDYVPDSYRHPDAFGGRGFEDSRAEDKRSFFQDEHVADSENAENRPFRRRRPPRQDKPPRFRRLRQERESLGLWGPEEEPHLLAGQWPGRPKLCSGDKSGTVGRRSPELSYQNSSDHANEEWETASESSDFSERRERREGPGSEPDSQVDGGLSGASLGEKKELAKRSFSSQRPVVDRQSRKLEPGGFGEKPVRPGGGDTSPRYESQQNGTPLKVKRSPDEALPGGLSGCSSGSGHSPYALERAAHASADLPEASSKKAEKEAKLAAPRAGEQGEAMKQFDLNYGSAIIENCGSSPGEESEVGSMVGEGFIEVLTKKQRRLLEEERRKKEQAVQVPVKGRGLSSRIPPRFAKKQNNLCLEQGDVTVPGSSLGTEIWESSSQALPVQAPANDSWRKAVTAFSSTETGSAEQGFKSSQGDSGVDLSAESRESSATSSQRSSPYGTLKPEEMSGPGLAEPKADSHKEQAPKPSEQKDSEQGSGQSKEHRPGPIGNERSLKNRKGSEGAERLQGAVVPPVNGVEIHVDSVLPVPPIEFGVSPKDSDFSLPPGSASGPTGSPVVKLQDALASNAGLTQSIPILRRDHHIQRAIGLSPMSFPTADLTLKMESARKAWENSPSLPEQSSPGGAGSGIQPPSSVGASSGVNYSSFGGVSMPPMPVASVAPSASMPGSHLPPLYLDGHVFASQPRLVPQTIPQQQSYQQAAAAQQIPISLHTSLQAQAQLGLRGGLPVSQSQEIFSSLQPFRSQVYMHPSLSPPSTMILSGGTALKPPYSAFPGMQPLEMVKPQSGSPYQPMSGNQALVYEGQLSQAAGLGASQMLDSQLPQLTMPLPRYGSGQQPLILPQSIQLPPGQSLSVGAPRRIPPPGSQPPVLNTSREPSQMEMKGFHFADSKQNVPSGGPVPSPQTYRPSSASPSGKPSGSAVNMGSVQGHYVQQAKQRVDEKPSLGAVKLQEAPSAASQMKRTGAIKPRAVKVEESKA
UniProt Q15397: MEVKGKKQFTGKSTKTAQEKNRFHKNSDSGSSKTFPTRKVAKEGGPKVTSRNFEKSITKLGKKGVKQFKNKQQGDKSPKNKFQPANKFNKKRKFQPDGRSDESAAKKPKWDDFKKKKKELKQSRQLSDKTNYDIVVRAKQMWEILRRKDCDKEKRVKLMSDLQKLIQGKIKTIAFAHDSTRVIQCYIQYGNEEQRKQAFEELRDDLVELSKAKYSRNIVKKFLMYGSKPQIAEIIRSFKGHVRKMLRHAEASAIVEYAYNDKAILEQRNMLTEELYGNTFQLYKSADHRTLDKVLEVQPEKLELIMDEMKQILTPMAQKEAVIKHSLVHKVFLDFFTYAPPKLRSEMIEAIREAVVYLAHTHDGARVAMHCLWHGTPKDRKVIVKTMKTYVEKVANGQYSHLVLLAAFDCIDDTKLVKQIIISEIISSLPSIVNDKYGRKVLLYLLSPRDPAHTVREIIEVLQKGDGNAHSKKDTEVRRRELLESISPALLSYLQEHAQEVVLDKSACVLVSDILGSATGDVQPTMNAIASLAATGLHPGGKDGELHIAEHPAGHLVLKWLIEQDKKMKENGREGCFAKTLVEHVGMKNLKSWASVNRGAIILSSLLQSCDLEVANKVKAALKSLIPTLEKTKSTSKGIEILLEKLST
UniProt Q3MHD2: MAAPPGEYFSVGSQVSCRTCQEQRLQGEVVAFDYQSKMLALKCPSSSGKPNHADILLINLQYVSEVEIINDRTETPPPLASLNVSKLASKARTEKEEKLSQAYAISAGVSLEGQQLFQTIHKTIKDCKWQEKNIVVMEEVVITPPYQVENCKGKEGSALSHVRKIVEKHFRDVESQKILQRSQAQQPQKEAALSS
UniProt Q53H47: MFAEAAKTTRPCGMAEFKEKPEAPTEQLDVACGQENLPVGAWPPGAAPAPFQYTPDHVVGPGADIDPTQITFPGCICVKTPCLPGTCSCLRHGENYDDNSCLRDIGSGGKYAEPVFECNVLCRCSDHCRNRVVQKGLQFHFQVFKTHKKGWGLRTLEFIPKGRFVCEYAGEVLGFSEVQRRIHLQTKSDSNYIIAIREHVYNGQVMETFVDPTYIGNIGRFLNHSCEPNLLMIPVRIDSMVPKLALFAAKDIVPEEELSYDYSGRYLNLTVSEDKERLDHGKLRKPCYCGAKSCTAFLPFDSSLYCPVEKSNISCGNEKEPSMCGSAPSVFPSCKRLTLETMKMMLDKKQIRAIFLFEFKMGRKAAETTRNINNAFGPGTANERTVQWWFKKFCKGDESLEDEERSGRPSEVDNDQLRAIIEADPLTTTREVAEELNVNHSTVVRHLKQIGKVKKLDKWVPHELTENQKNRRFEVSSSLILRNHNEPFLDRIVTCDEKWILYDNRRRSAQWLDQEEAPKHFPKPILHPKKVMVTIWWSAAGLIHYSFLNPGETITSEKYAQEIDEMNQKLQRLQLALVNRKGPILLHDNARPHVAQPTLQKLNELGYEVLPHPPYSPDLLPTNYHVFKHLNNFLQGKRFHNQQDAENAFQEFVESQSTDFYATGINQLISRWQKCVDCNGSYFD
UniProt Q4V328: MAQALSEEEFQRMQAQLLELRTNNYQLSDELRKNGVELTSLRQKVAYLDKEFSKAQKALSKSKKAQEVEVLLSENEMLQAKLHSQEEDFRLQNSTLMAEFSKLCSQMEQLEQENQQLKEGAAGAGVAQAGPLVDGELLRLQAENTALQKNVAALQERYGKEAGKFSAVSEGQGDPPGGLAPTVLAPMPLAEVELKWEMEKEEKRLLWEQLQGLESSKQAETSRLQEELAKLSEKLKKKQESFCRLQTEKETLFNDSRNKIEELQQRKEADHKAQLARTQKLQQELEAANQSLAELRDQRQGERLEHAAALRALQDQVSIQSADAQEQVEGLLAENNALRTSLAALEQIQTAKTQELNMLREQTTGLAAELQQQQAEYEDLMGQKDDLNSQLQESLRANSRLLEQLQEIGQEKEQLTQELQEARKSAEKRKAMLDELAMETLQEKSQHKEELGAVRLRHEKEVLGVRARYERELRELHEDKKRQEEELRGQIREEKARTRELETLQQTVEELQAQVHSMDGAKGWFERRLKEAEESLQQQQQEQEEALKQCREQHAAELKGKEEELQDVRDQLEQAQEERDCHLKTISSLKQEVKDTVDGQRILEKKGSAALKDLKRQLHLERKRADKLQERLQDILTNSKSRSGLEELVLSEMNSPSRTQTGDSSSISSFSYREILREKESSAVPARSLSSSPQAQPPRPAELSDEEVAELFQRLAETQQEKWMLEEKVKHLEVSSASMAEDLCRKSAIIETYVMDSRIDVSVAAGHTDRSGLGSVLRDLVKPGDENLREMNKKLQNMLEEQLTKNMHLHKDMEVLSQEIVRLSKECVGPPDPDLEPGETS
UniProt Q5JTV8: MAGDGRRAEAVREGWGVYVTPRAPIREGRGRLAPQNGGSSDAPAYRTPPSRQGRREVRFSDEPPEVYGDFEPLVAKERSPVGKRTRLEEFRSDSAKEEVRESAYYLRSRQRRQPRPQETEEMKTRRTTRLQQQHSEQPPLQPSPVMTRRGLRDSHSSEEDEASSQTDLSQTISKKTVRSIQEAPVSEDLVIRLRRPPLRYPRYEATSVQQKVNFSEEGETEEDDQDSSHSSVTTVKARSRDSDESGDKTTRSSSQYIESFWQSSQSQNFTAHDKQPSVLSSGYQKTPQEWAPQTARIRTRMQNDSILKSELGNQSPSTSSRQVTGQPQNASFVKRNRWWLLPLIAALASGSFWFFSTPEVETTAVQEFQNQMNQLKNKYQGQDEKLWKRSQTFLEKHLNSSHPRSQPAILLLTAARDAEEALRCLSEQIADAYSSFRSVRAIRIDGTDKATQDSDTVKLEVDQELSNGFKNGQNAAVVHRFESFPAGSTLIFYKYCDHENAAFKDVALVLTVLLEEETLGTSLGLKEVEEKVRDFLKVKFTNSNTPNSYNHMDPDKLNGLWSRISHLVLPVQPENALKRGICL
UniProt Q8NDD1: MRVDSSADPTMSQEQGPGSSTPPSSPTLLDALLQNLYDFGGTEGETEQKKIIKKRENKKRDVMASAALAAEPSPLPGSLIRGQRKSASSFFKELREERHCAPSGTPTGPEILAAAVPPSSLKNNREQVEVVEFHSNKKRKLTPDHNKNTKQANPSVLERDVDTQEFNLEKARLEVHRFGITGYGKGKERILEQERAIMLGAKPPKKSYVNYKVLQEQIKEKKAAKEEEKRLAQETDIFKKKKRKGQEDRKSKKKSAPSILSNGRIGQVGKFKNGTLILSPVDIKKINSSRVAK

± gives the standard deviation of the averaged measurements. The entries are a selection whose mix differs from that of the whole data set. Most entries show no effect beyond the scatter of the controls.

Compound in the test: Nc1ncnc2c1ncn2[C@@H]1O[C@H](COP(=O)(O)OP(=O)(O)NP(=O)(O)O)[C@@H](O)[C@H]1O [adenylyl imidodiphosphate]
Kind of test: NP40-soluble protein abundance relative to vehicle (solubility fold change) (ratio); higher = more soluble protein in presence of AMP-PNP. As to conditions: concentration: 0.1mM. In short, it runs like this: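 Across three independent experiments, values are fold changes against the detergent-processed vehicle for each replicate, based on vsn-normalised intensities. The samples were Jurkat crude lysate treated with eight concentrations (0.1 to 10 mM) for 10 min at room temperature and then 3 min at 37 °C. Lysate was solubilised with 0.8% NP40 and benzonase, ultracentrifuged, and the supernatant analysed by TMT-labelled LC-MS/MS.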
For LACTB2 (UniProt Q53H82), the NP40-soluble protein abundance was 0.9831 ± 0.0026.
As for UniProt Q15653 and related entries, the NP40-soluble protein abundance worked out at 1.01 ± 0.016.
On to “UniProt Q15782-5|H0YE91 and related entries”, for which the NP40-soluble protein abundance was found to be 0.903 ± 0.031.
UBE2V2 (UniProt Q15819): the NP40-soluble protein abundance amounted to 1.01 ± 0.044.
Regarding CMPK2 (UniProt Q5EBM0), the NP40-soluble protein abundance amounted to 1.01 ± 0.023.
Take UniProt Q5JWR5 and related entries: the NP40-soluble protein abundance came out at 0.9985 ± 0.0049.
Then SAMD9 (UniProt Q5K651), with 1.02 ± 0.039; and TAF9 (UniProt Q16594), with 0.984 ± 0.023.
For the target UniProt Q5JSZ5, the NP40-soluble protein abundance amounted to 1.03 ± 0.044.
The value for UniProt Q15397 was 0.996 ± 0.018; that for UniProt Q15555 and related entries was 0.991 ± 0.021; that for UniProt Q3MHD2 and related entries was 1.03 ± 0.023.
With UniProt Q15652 and related entries, the NP40-soluble protein abundance came out at 0.9848 ± 0.0088.
As to UniProt Q15633 and related entries, the NP40-soluble protein abundance turned out to be 0.945 ± 0.022.
In the case of RHEB (UniProt Q15382), the NP40-soluble protein abundance is 0.973 ± 0.013.
Consider SF3A2 (UniProt Q15428), for which the NP40-soluble protein abundance stood at 0.993 ± 0.023.
For the target UniProt Q53H47 and related entries, the NP40-soluble protein abundance was 1.02 ± 0.013.
For the target GRIPAP1 (UniProt Q4V328), the NP40-soluble protein abundance is 0.977 ± 0.018.
Regarding UniProt Q5T0N5-4, the NP40-soluble protein abundance was found to be 0.995 ± 0.01.
Consider TRIP13 (UniProt Q15645), for which the NP40-soluble protein abundance came out at 1.03 ± 0.062.
For CTC1 (UniProt Q2NKJ3), the NP40-soluble protein abundance was found to be 0.9869 ± 0.0034.
With UniProt Q2T9J0 and related entries, the NP40-soluble protein abundance amounted to 1.01 ± 0.014.
Then UniProt Q5JTV8 and related entries, with 0.959 ± 0.026.
Consider CRTC2 (UniProt Q53ET0), for which the NP40-soluble protein abundance was 0.999 ± 0.028.
Consider UniProt Q16698-2|Q16698, for which the NP40-soluble protein abundance is 1.03 ± 0.032.
With “Q5TBH9 and related entries (UniProt Q8NDD1)”, the NP40-soluble protein abundance came out at 1 ± 0.029.
